# In PubChem BioAssay AID493014 (National Center for Advancing Translational Sciences (NCATS), 2011):
# The whole screen tested about 340,000 compounds, of which about 170 (0.05%) were called active. This list was built around the results that the source calls inconclusive (neither active nor inactive); the mix of calls is not that of the screen. The call rests on the fitted dose curve; in most records, active means well fitted inhibition curve with a large enough effect in the signal ratio, with a control signal flat (not every such curve was filed as active); inconclusive means small, poorly fitted or top-dose-only effect, or effect the other way, or a change in a side signal; inactive means flat fitted curve, though single readings scatter; the % refers to the signal ratio. Potencies beside an inconclusive call are fits to weak or partial responses and may not hold up.
# Experiment: qHTS Assay to Find Inhibitors of Chronic Active B-Cell Receptor Signaling;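 on activity change, negative = inhibition: plate controls were basal doxycycline-induced cells for no effect and cells given 10 µM MG132 for full effect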
# Details: ABC-DLBCL IkBa-CBG/CBR reporter, luminescence ratio (green luciferase fused to IkBa over red control in TMD8 lymphoma cells), 4 h; activity change, negative = inhibition: at 46.1 µM (top of the series)
# Procedure, shortened: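 Concentration-response series (up to 46 uM) were applied to TMD8 dual-reporter cells for 4 h at 37C with doxycycline. Green/red ratio, after filter-overlap correction, defined %Activity; red signal alone was normalised to basal cells and zero luminescence.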
# Potency means the concentration at half of the fitted maximal effect.
SMILES,"activity change, negative = inhibition",Potency
Oc1ccc(CN2CCCCC2)nc1-c1ccccc1,inactive: 4.18%,
Cc1cc(C)nc(NC(=O)c2cc(-c3ccc(C)s3)nc3ccccc23)c1,inconclusive: 3.7%,
Cn1ncc(C#N)c1/N=C/N1CCCCCC1,inconclusive: -8.88%,
COc1cc(OC)c(OC)cc1/C=N/n1c(-c2n[nH]c3c2CCC3)n[nH]c1=S,inconclusive: 1.86%,
Cc1ccn2cc(C(=O)Nc3ccc4c(c3)OCCO4)nc2c1,inconclusive: -17.4%,
O=C(c1cc2cc(Br)ccc2oc1=O)N1CCN(c2ccccn2)CC1,inconclusive: 4.85%,
CCOC(=O)N1CCC(N2Cc3cccc(C(=O)Nc4ccc(F)cc4)c3C2=O)CC1,,"inconclusive: 5.01 µM [falling, full curve, poor fit]"
CCOC(=O)C1=CC[C@]2(C)c3c(c4ccccc4n3C)C(=O)C1N2C,inactive: -5.24%,
COc1ccc(-c2noc(CCC(=O)NCCCN3CCC(Cc4ccccc4)CC3)n2)cc1,inconclusive: -7.34%,
COC(=O)c1c(NC(=O)c2ccccc2)sc(Cc2ccccc2)c1C,inconclusive: 15.2%,
COc1cccc(/C=C2\SC(=O)N(CC(=O)NCCCn3ccnc3)C2=O)c1,inconclusive: -20.6%,
COc1ccc(C(=O)c2c3ccc(C(F)(F)F)cc3[n+]([O-])n2CCCC(N)=O)cc1,inconclusive: -0.673%,
Cc1cccc(CC(=O)NCCc2sc3nc(-c4ccc(F)cc4)nn3c2C)c1,inactive: 10.1%,
CCOC(=O)C1CCN(C(=O)CSc2cc(=O)n(CC)c3ccccc23)CC1,,"inconclusive: 23.1 µM [falling, partial curve, poor fit]"
O=S(=O)(c1cccc(-c2n[nH]c(=S)n2Cc2ccccc2)c1)N1CCOCC1,inconclusive: 14.3%,
C=CCOc1c(Br)cc(/C=C2/NC(=S)N(C(C)=O)C2=O)cc1OC,inconclusive: 21.9%,
Cc1ccc(/C=C/c2nc3sc(C(=O)O)c(C)c3c(=O)[nH]2)cc1[N+](=O)[O-],inconclusive: -25%,
CCOc1ccc(C2=Nn3c(nnc3-c3ccccc3OC)SC2)cc1,,"inconclusive: 25.1 µM [falling, partial curve]"
O=C(C1CC1)N1CCc2sccc2C1c1ccc(Cl)cc1 (stereo not drawn),inconclusive: -21.4%,
O=C(N/N=C/c1ccc(OC(F)F)cc1OC(F)F)NC1CCCCC1,inactive: 0.339%,
CCOc1ccc2[nH]c(SCC(=O)OC)c([N+](=O)[O-])c2c1,inactive: 1.38%,
CC(c1cccnc1)N(CCN(C)C)C(=O)Nc1ccc(Cl)cc1 (stereo not drawn),,"inconclusive: 0.58 µM [rising, full curve, poor fit]"
COc1ccccc1N=Nc1nc(-c2ccccc2)c(-c2ccccc2)[nH]1,inactive: 18.1%,
O=C(O)/C=C/C(=O)Nc1ccc(Oc2ncnc3cc(Cl)ccc23)nc1,,"inconclusive: 7.08 µM [rising, full curve, poor fit]"
Cc1cc(NC(=O)CSc2nc3ccccc3c(=O)n2Cc2ccccc2)no1,inactive: 2.38%,
COc1ccc(Cl)cc1C(=O)Nc1ccc(NC(=O)c2ccco2)cc1,inconclusive: 26.4%,
COc1ccc2nc3ccccc3nc2c1N,inconclusive: 3.44%,

# Entries above that contain fluorine:
SMILES,"activity change, negative = inhibition",Potency
CCOC(=O)N1CCC(N2Cc3cccc(C(=O)Nc4ccc(F)cc4)c3C2=O)CC1,,"inconclusive: 5.01 µM [falling, full curve, poor fit]"
COc1ccc(C(=O)c2c3ccc(C(F)(F)F)cc3[n+]([O-])n2CCCC(N)=O)cc1,inconclusive: -0.673%,
Cc1cccc(CC(=O)NCCc2sc3nc(-c4ccc(F)cc4)nn3c2C)c1,inactive: 10.1%,
O=C(N/N=C/c1ccc(OC(F)F)cc1OC(F)F)NC1CCCCC1,inactive: 0.339%,

# Following part

SMILES,"activity change, negative = inhibition",Potency
O=C(Nc1ccccc1N1CCN(C(=O)c2ccc(Cl)cc2)CC1)c1cc(Br)ccc1Cl,,"inconclusive: 20 µM [rising, single point]"
C[C@@H]1[C@H]2CCCC[C@H]2CN(C(=O)OC(C)(C)C)[C@@H]1c1cn(Cc2ccccc2)c2ccc(F)cc12,inconclusive: -2.24%,
C[C@H](CO)N1C[C@H](C)[C@@H](CN(C)C(=O)Nc2ccc(C(F)(F)F)cc2)Oc2c(NC(=O)C3CCCCC3)cccc2C1=O,inactive: -0.151%,
COC(=O)c1ccc(CSc2nc3ccccc3s2)o1,inconclusive: -1.19%,
COc1ccc(C(=O)Nc2c(Cl)cc(Cl)cc2C(=O)N2CCC(C)CC2)cc1,inconclusive: 7.99%,
Cc1nn(-c2ccc(Cl)cc2Cl)c(C)c1C(=O)O,inactive: -3.25%,
O=S(=O)(NCCc1ccccc1)c1ccc(Br)cc1,inconclusive: 6.59%,
O=C(COC(=O)c1ccc(O)cc1)Nc1ccc(Cl)cc1,inconclusive: -11%,
CCC(=O)Nc1cc(C(=O)O)ccc1Sc1ccccc1,inactive: 12.4%,
Cc1ccc(-n2nc(C)c(C(=O)Nc3cccc(C(=O)NC4CC4)c3)n2)c(C)c1,inconclusive: -6.73%,
CC[n+]1ccccc1/C=C/c1ccc(N(C)C)cc1,inactive: 13%,
CCO[C@@H]1OC(C(=O)N2CCCCCCC2)=C[C@H](C2CCCCC2)[C@H]1CCCO,inconclusive: 33.6%,
CCn1c(=N)n(CC(=O)c2ccc(OC)c(OC)c2)c2ccccc21,inconclusive: -8.47%,
N#CN1CCC(NS(=O)(=O)c2ccc(C(F)(F)F)cc2)C1 (stereo not drawn),inactive: 1.6%,
Cc1c(C(=O)N2CCN(c3ccc(F)cc3)CC2)sc2ncnc(N3CCN(c4ccccn4)CC3)c12,,"inconclusive: 15.8 µM [falling, single point]"
Cc1ccc(/C=N/n2c(-c3ccccc3)n[nH]c2=S)cc1,inconclusive: -0.725%,
NC(=O)c1ccsc1NC(=O)COC(=O)Cc1ccsc1,inconclusive: -8.69%,
CC(=O)Nc1c(-c2ccccc2)nc2ncccn12,,"inconclusive: 25.9 µM [falling, partial curve]"
CC1(C)Cc2ccccc2C(NNC(=O)c2ccncc2)=N1,inactive: -7.14%,
CCC(C)NC(=O)C1c2ccccc2C(=O)N1Cc1ccc(F)cc1 (stereo not drawn),inactive: 2.95%,
CCOc1ccc(NC(=O)CC2C(=O)N(c3cccc(OC)c3)C(=O)N2CCOC)cc1 (stereo not drawn),inconclusive: -9.09%,
CC(C)Oc1ccccc1C1CC(=O)Nc2cc3c(cc21)OCO3 (stereo not drawn),,"inconclusive: 8.91 µM [falling, partial curve]"
CCCOc1ccc(C(=O)Nc2ccc(S(=O)(=O)Nc3onc(C)c3C)cc2)cc1,inconclusive: -7.93%,
O=C(c1ccccc1)c1nccc2ccccc12,inconclusive: -0.287%,
Cc1c(C(=O)Nc2nc(-c3ccccn3)cs2)oc2ccccc12,inactive: 9.35%,
Cc1noc(C)c1COC(=O)CCc1nc2ccccc2c(=O)[nH]1,inconclusive: -1.49%,
